Assay results: article PMC6029062
Results are given in words; binding and its absence hold for the method and conditions named. For some of these results: Binding seen in cells or lysates may run through a third protein. Tags and fused reporters may be left off the sequences shown.

T1: GST-fused integrin β7 CT (UniProt P26010)
T1 sequence: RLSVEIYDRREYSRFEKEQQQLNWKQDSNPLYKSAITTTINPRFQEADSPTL

B1: integrin β1 CT (yeast two-hybrid fusion in pGADT7) (domain or fragment)
chain: KLLMIIHDRREFAKFEKEKMNAKWDTGENPIYKSAVTTVVNPKYEGK
B2: integrin β2 CT (yeast two-hybrid fusion in pGADT7) (domain or fragment)
chain: KALIHLSDLREYRRFEKEKLKSQWNNDNPLFKSATTTVMNPKFAES
B3: integrin β7 CT (yeast two-hybrid fusion in pGADT7) (domain or fragment, UniProt P26010 747-798)
chain: T1 sequence

What was measured:
GST-fused integrin β7 CT = target: T1, GST-fused integrin β7 CT; experiment: pull-down; purified GST-fused β CT proteins on Glutathione Sepharose 4B beads, incubated with lysates of HUVECs expressing EGFP-β3-endonexin overnight at 4 °C; Western blotting of the precipitates; only the target purified
[1] = target: β3-endonexin (yeast two-hybrid fusion in pGBKT7); experiment: two-hybrid; Matchmaker Gold Yeast Two-hybrid system; β3-endonexin or kindlin-2 in pGBKT7, integrin β CTs in pGADT7; serial dilution on SD-3 selection media (−Leu/−Trp/−His)

Molecule | binding (GST-fused integrin β7 CT) | binding [1]
EGFP-β3-endonexin | no binding | 
B1 |  | no binding
B2 |  | no binding
B3 |  | no binding
